Results are given in words; binding and its absence hold for the method and conditions named. Some entries that bind do so weakly or less than the wild type.
T1: human MAdCAM, full length, on cells (human) (UniProt Q13477)
T1 sequence (looked up): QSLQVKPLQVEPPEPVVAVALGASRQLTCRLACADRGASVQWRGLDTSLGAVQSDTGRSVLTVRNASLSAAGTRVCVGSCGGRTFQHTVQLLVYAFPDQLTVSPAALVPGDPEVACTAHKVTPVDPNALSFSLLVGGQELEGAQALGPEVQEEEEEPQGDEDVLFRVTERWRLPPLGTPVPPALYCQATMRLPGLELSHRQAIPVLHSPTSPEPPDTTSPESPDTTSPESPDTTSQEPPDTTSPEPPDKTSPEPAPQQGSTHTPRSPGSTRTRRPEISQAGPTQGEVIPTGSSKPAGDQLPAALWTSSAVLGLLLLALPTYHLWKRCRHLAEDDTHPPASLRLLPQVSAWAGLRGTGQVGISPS

B1: modified anti-MAdCAM monoclonal antibody 6.34.2-mod (antibody, human IgG2, kappa, V domains shown)
VH: QVQLVESGGGVVQPGRSLRLSCAASGFTFSSYGMHWVRQAPGKGLEWVAVISNDGNNKYYADSVKGRFTISRDNSKNTLYLQMNSLRAEDTAVYYCARDSTAITYYYYGMDVWGQGTTVTVSS
VL: DIQMTQSPSSLSASVGDRVTITCRASQSISSYLNWYQQKPGKAPKLLIYAASGLKRGVPSRFSGSGSGTDFTLTISSLQPEDFATYYCHQSYSLPFTFGPGTKVDIKR
B2: modified anti-MAdCAM monoclonal antibody 6.77.1-mod (antibody, human IgG2, kappa, V domains shown)
VH: EVQLVESGGGLVKPGGSLRLSCAASGFTFSSYSMNWVRQAPGKGLEWVSSISSSSSYIYYADSVKGRFTISRDNAKNSLYLQMNSLRAEDTAVYYCARDGYSSGWSYYYYYGMDVWGQGTTVTVSS
VL: DIVMTQTPLSLSVTPGQPASISCKSSQSLLLSDGKTYLNWYLQKPGQPPQLLIYEVSNRFSGVPDRFSGSGSGTDFTLKISRVEAEDVGVYSCMQSIQLMSSFGQGTKLEIKR
B3: modified anti-MAdCAM monoclonal antibody 7.26.4-mod (antibody, human IgG2, kappa, V domains shown)
VH: QVQLVQSGAEVKKPGASVKVSCEASGYTFTSYGIDWVRQAPGQGLEWMGWISVYSGNTNYAQKLQGRVTMSTDTSTSTAYMELRSLRSDDTAVYYCAREGSSSSGDYYYGMDVWGQGTTVTVSS
VL: DIVMTQTPLSLSVTPGQPASISCKSSQSLLYSDGKTYLFWYLQKPGQPPQLLIYEVSNRFSGVPDRFSGSGSGTDFTLKISRVEAEDVGVYYCMQSIQLPWTFGQGTKVEIKR
B4: anti-MAdCAM monoclonal antibody 6.73.2 (antibody, human IgG4, kappa, V domains shown)
VH: EVQLLESGGDLVQPGGSLRLSCAASGFTFRSYAMNWVRQAPGKGLEWVSVISGRGGTTYYADSVKGRFTISRDNSKNTLYLQMNSLRAEDAAVYYCAKIAVAGEGLYYYYGMDVWGQGTTVTVSS
VL: DIQMTQSPSSLSASVGDRVTFTCRASQNITNYLNWYQQKPGKAPKLLIYAASSLPRGVPSRFRGSGSGTDFTLTISSLQPEDFATYYCQQSYSNPPECGFGQGTTLDIKR
B5: anti-MAdCAM monoclonal antibody 6.14.2 (antibody, human IgG4, kappa, V domains shown)
VH: EVQLLESGGGLVQPGGSLRLSCAASGLTFNNSAMTWVRQAPGKGLEWVSTTSGSGGTTYYADSVKGRFTISRDSPKNTLYLQMNSLRAEDTAVYYCAARGYSYGTTPYEYWGQGTLVTVSS
VL: DIQMTQSPSSLSASVGDRVTITCRASRSISSYLNWYQQKPGKAPKVLIFFVSSLQSGVPSRFSGSGSGTDFTLTISSLQPEDFATYYCQQNYIPPITFGQGTRLEIRR
B6: anti-MAdCAM monoclonal antibody 6.22.2 (antibody, human IgG4, kappa, V domains shown)
VH: QVQLVESGGGVVQPGRSLRLSCAASGHTFSSDGMHWVRQAPGKGLEWVAIIWYDGSNKYYADSVKGRFTISRDNSKNTLYLQMNSLRAEDTAVYYCARDPGYYYGMDVWGQGTTVTVSS
VL: EIVLTQSPDFQSVTPKEKVTITCRASQRIGSSLHWYQQKPDQSPKLLIKYASQSFSGVPSRFSGSGSGTNFTLTINGLEAEDAATYYCHQSGRLPLTFGGGTKVEIKR
B7: anti-MAdCAM monoclonal antibody 6.34.2 (antibody, human IgG4, kappa, V domains shown)
VH: QVQLVESGGGVVQPGRSLRLSCAASGFTFSSYGMHWVRQAPGKGLEWVAVISNDGNNKYYADSVKGRFTISRDNSKNTLYLQMNSLSAEDTAVYYCARDSTAITYYYYGMDVWGQGTTVTVSS
VL: DIQMTQSPSSLSASVGDRVTITCRASQNISSYLNWFQQKPGKAPKLLIYAASGLKRGVPSRFSGSGSGTDFTLTIRTLQPDDFATYSCHQSYSLPFTFGPGTKVDIKR
B8: anti-MAdCAM monoclonal antibody 6.77.1 (antibody, human IgG4, kappa, V domains shown)
VH: EVQLVESGGGLVKPGGSLRLSCAASGFTFSSYSMNWVRQAPGKGLEWVSSISSSSSYIYYADSVKGRFTISRDNAKNSLYLQMNSLRAEDTAVYYCARDGYSSGWSYYYYYGMDVWGQGTTVTVSS
VL: DIVMTQTPLSLSVTPGQPASISCNSSQSLLLSDGKTYLNWYLQKPGQPPQLLIYEVSNRFSGVPDRFSGSGSGTDFTLKISRVEAEDVGVYSCMQSIQLMCSFGQGTKLEIKR
B9: anti-MAdCAM monoclonal antibody 7.26.4 (antibody, human IgG2, kappa, V domains shown)
VH: QVQLVQSGAEVKKPGASVKVSCEASGYTFTSYGIDWVRQAPGQGLEWMGWISVYSGNTNYAQKLQGRVTMSTDTSTSTAYMELRSLRSDDTAVYYCAREGSSSSGDYYYGMDVWGQGTTVTVSS
VL: DIVMTQTPLSLSVTPGQPASISCKSNQSLLYSDGKTYLFWYLQKPGQPPQLLIYEVSNRFSGVPDRFSGSGSGTDFTLKISRVEAEDVGVYYCMQSIQLPWTFGQGTKVEIKR

Key:
[1] = molecular target: T1, human MAdCAM, full length, on cells (human); assay: binding to CHO cells expressing recombinant human MAdCAM
[2] = molecular target: MAdCAM-IgG1 Fc fusion protein (human); assay: ELISA on coated MAdCAM-IgG1 Fc
[3] = molecular target: T1, human MAdCAM, full length, on cells (human); assay: immunohistochemistry on human frozen tissue sections

Row | Binder | binding [1] | binding [2] | binding [3]
1 | B1 | binds |  | 
2 | B2 | binds |  | 
3 | B3 | binds |  | 
4 | B4 |  | binds | binds
5 | B5 |  | binds | binds
6 | B6 |  |  | binds
7 | B7 |  |  | binds
8 | B8 |  |  | binds
9 | B9 |  |  | binds
